Hit rate of the full screen: of about 390,000 compounds, about 610 (0.16%) were called active. The shares of active, inactive and inconclusive entries below differ from those in the screen. Calls come from the whole dose curve; as a rule, active = well fitted inhibition curve with a large enough effect; inconclusive = small, poorly fitted or top-dose-only effect, or effect the other way, or another doubt; inactive = no such curve, though single readings can be large or run the other way. A potency beside an inconclusive call is a rough fit, not a confirmed value.
Experiment: Nrf2 qHTS screen for inhibitors: counterscreen for cytotoxicity
Settings: A549 ARE-Fluc cells, CellTiter-Fluor viability, 18-24 h; activity change, negative = cytotoxicity: at 46 µM (top of the series)
Procedure, shortened: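 Cytotoxicity counterscreen: CellTiter-Fluor fluorescence was measured in A549 ARE_Fluc cells after 18-24 h of compound exposure in a concentration series. The subsequent BugLite luminescent read reports ARE-luciferase activity.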
% is set by controls: 0 for no effect and ±100 for the full control effect; potency is the fitted concentration of half-maximal effect.

Row | SMILES | activity change, negative = cytotoxicity | Potency
1 | Cc1ccccc1-c1nnc(CN2CCN(c3cc(Cl)ccc3C)CC2)o1 | inactive: 1.12% | 
2 | COCCn1c(=N)c(C(=O)NCc2ccco2)cc2c(=O)n3ccccc3nc21 | inactive: -12.5% | 
3 | O=C(N/N=C/C(Br)=C/c1ccccc1)c1ccc([N+](=O)[O-])cc1 | inactive: -1.96% | 
4 | Nc1c(S(=O)(=O)c2ccccc2)c2nc3ccccc3nc2n1Cc1ccco1 |  | inconclusive: 8.2 µM [falling, partial curve, poor fit]
5 | CCC(C)c1ccccc1NC(=O)COC(=O)c1ccc2[nH]c3c(c2c1)CCCC3 (stereo not given) |  | inconclusive: 14.6 µM [falling, partial curve]
6 | O=C(OCC(=O)N1CCCc2ccccc21)c1ccccc1NCCO | inactive: -5.56% | 
7 | CCOC(=O)c1sc(NC(=O)Nc2ccc(Cl)cc2)cc1C |  | inconclusive: 20.6 µM [falling, single point]
8 | COc1cccc2c1cc1c(=O)n(CC(=O)NCCCN3CCN(C)CC3)nc(C)n12 |  | inconclusive: 3.66 µM [activator, single point]
9 | CCc1ccc(NC(=O)C2CCCN2S(=O)(=O)c2cccc3nsnc23)cc1 (stereo not given) | inactive: -9.08% | 
10 | CC(=O)c1cn(CCOc2ccccc2C)c2ccccc12 | inactive: 1.31% | 
11 | O=C(c1cccc(Cl)c1)N1CCN(Cc2ccncc2)CC1 | inactive: -5.09% | 
12 | CCCCCCn1c(N2CCN(c3ccccc3)CC2)nc2c1c(=O)n(C)c(=O)n2C |  | inconclusive: 20.6 µM [falling, single point]
13 | CC1CC(=O)c2c(cc3c(-c4c(O)cc(O)c5c(O)c6c(cc45)OC(C)CC6=O)c(O)cc(O)c3c2O)O1 (stereo not given) |  | inconclusive: 16.4 µM [falling, single point]
14 | Cc1ccc2c(C(=O)CCl)c(C)[nH]c2c1 | inactive: -0.698% | 
15 | Fc1cccc2sc(Nc3nnc(-c4ccccc4)o3)nc12 |  | inconclusive: 8.2 µM [falling, partial curve, poor fit]
16 | Cc1ccc(C)n1-c1ccc(-n2cnnn2)cc1 |  | inconclusive: 5.17 µM [falling, partial curve, poor fit]
17 | Cc1[nH]n2cnnc2c(=O)c1Br | inactive: -5.48% | 
18 | O=C(OC1CCOC1=O)c1cc(S(=O)(=O)N2CCOCC2)c(Cl)cc1Cl (stereo not given) | inactive: 13.2% | 
19 | CC(=O)c1ccc(N2CCN(S(=O)(=O)c3ccc(-c4cnc(C5CC5)o4)cc3)CC2)cc1 |  | inconclusive: 23.1 µM [falling, partial curve, poor fit]
20 | CC1CCN(c2nc3c(S(=O)(=O)c4cccc(Cl)c4)nnn3c3ccsc23)CC1 | inactive: 3.64% | 
21 | CCc1c(C)nc2ncnn2c1N1CCCC(C(=O)NCc2cccs2)C1 (stereo not given) | inactive: -7.03% | 
22 | COc1ccc(C2(O)CCN(CC(=O)Nc3nc(-c4ccccc4)cs3)CC2)cc1 |  | inconclusive: 29.1 µM [falling, partial curve, poor fit]
23 | CCC(NC(=S)NCc1ccc(F)cc1)c1ccc(C(C)C)cc1 (stereo not given) | inactive: -10.9% | 

Quoted at random: 2 entries already listed, in no set order.
Row | SMILES | activity change, negative = cytotoxicity | Potency
6 | O=C(OCC(=O)N1CCCc2ccccc21)c1ccccc1NCCO | inactive: -5.56% | 
16 | Cc1ccc(C)n1-c1ccc(-n2cnnn2)cc1 |  | inconclusive: 5.17 µM [falling, partial curve, poor fit]

Next part

Row | SMILES | activity change, negative = cytotoxicity | Potency
24 | COc1cc(NS(=O)(=O)c2ccc(C)c(C)c2)c(OC)cc1Cl |  | inconclusive: 18.4 µM [falling, single point]
25 | CC(C)N1CCC(N2CCN(CCCc3ccccc3)CC2CCO)CC1 (stereo not given) | inactive: -19.4% | 
26 | CN(Cc1ccc(Cl)cc1)C(=O)CCl |  | inconclusive: 23.1 µM [falling, single point]
27 | COc1ccc(N(CC(=O)NN=C2CCN(C)CC2)S(=O)(=O)c2ccc(NC(C)=O)cc2)cc1 |  | inconclusive: 18.4 µM [falling, partial curve]
28 | CCOc1ccc(N=Nc2c(=O)[nH]n3c(=O)cc(C)[nH]c23)cc1 |  | inconclusive: 29.1 µM [falling, single point]
29 | O=C(Nc1ccccc1Cl)N1CCCN(c2nc(-c3ccccc3)ns2)CC1 | inactive: -15.7% | 
30 | O=S1(=O)CC=C(CSC(=S)NC2CCS(=O)(=O)C2)C1 (stereo not given) |  | inconclusive: 32.6 µM [falling, partial curve, poor fit]
31 | O=C1C2C3C=CC(CO)(O3)C2C(=O)N1c1ccccc1-c1ccccc1 (stereo not given) |  | inconclusive: 29.1 µM [falling, single point]
32 | CCOC(=O)c1nc(NNC(=O)c2ccc([N+](=O)[O-])cc2)sc1C |  | inconclusive: 32.6 µM [falling, partial curve, poor fit]
33 | Cc1ccc(N2CC(NC(=O)C3CCCC3)CC2=O)cc1 (stereo not given) | inactive: 5.62% | 
34 | Cc1ccc(S(=O)(=O)c2cn(C)c3cc(N4CCN(C)CC4)c(F)cc3c2=O)c(C)c1 | inactive: -10.2% | 
35 | CCN(CC)C(=O)[C@H]1CC(CC(=O)NCC23CC4CC(CC(C4)C2)C3)C(=O)N2CCc3c([nH]c4ccccc34)[C@]12C (stereo not given in full) |  | inconclusive: 32.6 µM [falling, single point]
36 | O=C(CNC(=O)OCc1ccccc1)NC1CCCCCC1 |  | inconclusive: 20.6 µM [activator, partial curve, poor fit]
37 | C[C@@H]1NC(=O)[C@H](CCC(=O)O)NC(=O)c2cc([N+](=O)[O-])cc(F)c2NCCC[C@@H](C(N)=O)NC1=O |  | inconclusive: 25.9 µM [falling, partial curve, poor fit]
38 | COc1ccc(N(CC(=O)NC2CCCCCCC2)S(=O)(=O)c2c(C)nn(C)c2C)cc1 |  | inconclusive: 2.06 µM [activator, partial curve, poor fit]
39 | COc1ccc(Sc2ccc(NC(=O)c3ccccc3Cl)cc2C#N)cc1 |  | inconclusive: 23.1 µM [falling, single point]
40 | CSc1cccc(NC(=O)c2ccc3c(c2)CCCN3S(C)(=O)=O)c1 |  | inconclusive: 18.4 µM [falling, single point]
41 | CC1(C)CC(=O)C(N=Nc2cccc(S(=O)(=O)N3CCOCC3)c2)=C(O)C1 | inactive: 0.0529% | 
42 | Cc1ccc(NC(=O)c2ccc3c(=O)n4c(nc3c2)CCCCC4)cc1F |  | inconclusive: 25.9 µM [falling, single point]
43 | O=C(NC(=S)Nc1ccc(S(=O)(=O)N2CCCCC2)cc1)c1cccs1 | inactive: 0.51% | 
44 | CC1(OC(=O)C2CCCC2)C(=O)C=C2C=C(c3ccsc3)N(C(CO)CO)C=C2C1=O (stereo not given) |  | inconclusive: 29.1 µM [falling, partial curve, poor fit]
45 | COc1ccc2c(c1)C(=O)/C(=C/C=C/c1ccccc1)CC2 |  | inconclusive: 2.06 µM [falling, partial curve, poor fit]
